Experimental data published in the supplement of paper PMC10735217.
Counter-ions that a name gives are not always drawn. This is one part of the list. Single values are uncertain here, since repeats match poorly.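 Human kidney-derived cells stably carry a construct in which eight TEAD-binding elements drive luciferase, measured by luminescence in a drug-repurposing library screen. A hit is any compound whose signal exceeds the plate mean by more than five robust Z scores.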

System: HEK293A TEAD-LUC reporter
Assay: TEAD-luciferase reporter activity (YAP activation), robust Z score vs plate; higher = stronger YAP/TEAD activation
Conditions: 24 h

| Structure (SMILES) | TEAD-luciferase reporter activity (compound concentration: 200 nM) | TEAD-luciferase reporter activity (compound concentration: 2 uM) | TEAD-luciferase reporter activity (compound concentration: 10 uM) |
| --- | --- | --- | --- |
| C[C@H](CC[C@@H](O[C@@H]1O[C@H](CO)[C@@H](O)[C@H](O)[C@H]1O[C@@H]1O[C@H](CO)[C@@H](O)[C@H](O)[C@H]1O)C(C)(C)O)[C@H]1CC[C@@]2(C)[C@@H]3CC=C4[C@@H](CC[C@H](O[C@@H]5O[C@H](CO[C@@H]6O[C@H](CO)[C@@H](O)[C@H](O)[C@H]6O)[C@@H](O)[C@H](O)[C@H]5O)C4(C)C)[C@]3(C)[C@H](O)C[C@]12C [Mogroside IV] | inactive: -0.117 | inactive: -2.04 | inactive: -0.979 |
| CCc1ccc(N(CC(C)C)S(=O)(=O)c2ccc(OCC3CCOCC3)c(CO)c2)cc1 | inactive: 2.13 | inactive: 0.297 | inactive: -0.201 |
| CC(C)C[C@@H](N)C(=O)N[C@H]1C(=O)N[C@@H](CC(N)=O)C(=O)N[C@H]2C(=O)N[C@H]3C(=O)N[C@H](C(=O)N[C@H](C(=O)O)c4cc(O)cc(O)c4-c4cc3ccc4O)[C@H](O)c3ccc(c(Cl)c3)Oc3cc2cc(c3O[C@@H]2O[C@H](CO)[C@@H](O)[C@H](O)[C@H]2O[C@H]2C[C@](C)(N)[C@H](O)[C@H](C)O2)Oc2ccc(cc2Cl)[C@H]1O [Norvancomycin (hydrochloride)] | inactive: 1.34 | – | inactive: -0.469 |
| Oc1nc2ccccc2n1C1CCN(CCOc2ccccc2)CC1 [Oxiperomide] | inactive: -0.44 | inactive: -0.0726 | active: 10.4 |
| CCn1c(=O)/c(=C2\Sc3ccccc3N2C)s/c1=C\c1cccc[n+]1CC | inactive: -1.55 | inactive: -0.557 | inactive: 1.47 |
| CCOC(=O)CN(CCN(CC(=O)OCC)Cc1ccccc1O)Cc1ccccc1O | inactive: -2.4 | inactive: 1.98 | inactive: 2.64 |
| O=C(Cn1ccnc1[N+](=O)[O-])NCC(F)(F)C(F)(F)F | inactive: -1.18 | inactive: 0.409 | inactive: -0.43 |
| NC(=O)OC1CC2CC3CC(C2)CC1C3 (stereo not drawn) | inactive: -0.886 | inactive: -1.19 | inactive: -0.448 |
| N#C[C@@H]1C[C@@H]2C[C@@H]2N1C(=O)[C@@H](N)[C@@]12C[C@@H]3C[C@@H](CC(O)(C3)C1)C2 [saxagliptin hydrochloride] | inactive: -1.41 | – | inactive: -0.128 |
| CC1(C)[C@@H](O[C@H]2O[C@H](C(=O)O)[C@@H](O)[C@H](O)[C@H]2O[C@@H]2O[C@H](C(=O)O)[C@@H](O)[C@H](O)[C@H]2O)CC[C@]2(C)[C@H]3C(=O)C=C4[C@@H]5C[C@@](C)(C(=O)O)CC[C@]5(C)CC[C@@]4(C)[C@]3(C)CC[C@@H]12 [Glycyrrhizinic acid] | inactive: -1.76 | inactive: -0.726 | inactive: 0.468 |
| O=C1Nc2ccc(F)c(F)c2[C@@](C#CC2CC2)(C(F)(F)F)N1 | inactive: -1.17 | inactive: -0.297 | inactive: 0.627 |
| CO[C@H]1C[C@@H]2CC[C@@H](C)[C@@](O)(O2)C(=O)C(=O)N2CCCC[C@H]2C(=O)O[C@H]([C@H](C)C[C@@H]2CC[C@@H](O)[C@H](OC)C2)CC(=O)[C@H](C)/C=C(\C)[C@@H](O)[C@@H](OC)C(=O)[C@H](C)C[C@H](C)/C=C/C=C/C=C/1C [Sirolimus] | – | inactive: 0.101 | – |
| CO[C@H]1C[C@@H]2CC[C@@H](C)[C@@](O)(O2)C(=O)C(=O)N2CCCC[C@H]2C(=O)O[C@H]([C@H](C)C[C@@H]2CC[C@@H](O)[C@H](OC)C2)CC(=O)[C@H](C)/C=C(\C)[C@@H](O)[C@@H](OC)C(=O)[C@H](C)C[C@H](C)/C=C/C=C/C=C/1C [Rapamycin] | inactive: 0.222 | – | inactive: 2.95 |
| O=C([O-])CN1CCN(CC(=O)[O-])CCN(C(CO)C(O)CO)CCN(CC(=O)[O-])CC1 (stereo not drawn) [gadobutrol] | inactive: -0.874 | inactive: -1.59 | inactive: -0.962 |
| CC(C)NCCN(C(C)C)S(=O)(=O)c1ccc(Cl)cc1Cl | inactive: -1.24 | inactive: -0.517 | inactive: 1.01 |
| CNCCN1CCN(c2cccc(Cl)c2)C1=O | inactive: 2.94 | inactive: -0.453 | inactive: -0.546 |
| Nc1ccc(S(=O)(=O)[N-]c2cncc(Cl)n2)cc1 [Sodium Sulfachloropyrazine Monohydrate] | inactive: -0.147 | inactive: 0.581 | inactive: 0.124 |
| CNC(=O)c1ccc(-c2cc(Cl)cc(Cl)c2Cl)c(N)n1 | inactive: 0.798 | inactive: -0.591 | inactive: 1.21 |
| Cc1cc(NC(=O)/C(C#N)=C(\O)C2CC2)ccc1C(F)(F)F | inactive: -0.706 | inactive: 0.452 | inactive: 0.981 |
| Cc1cccc(C)c1OCC(=O)N[C@@H](Cc1ccccc1)[C@@H](O)C[C@H](Cc1ccccc1)NC(=O)[C@H](C(C)C)N1CCCNC1=O [Lopinavir] | inactive: -1.1 | inactive: 1.75 | inactive: -0.386 |
| Cc1ccc(O)c2ncccc12 | inactive: -1.46 | inactive: -0.849 | inactive: 2.01 |
| O=C1NC(=O)C(Cc2cccc(Oc3ccccc3)c2)S1 (stereo not drawn) | inactive: -1.37 | inactive: -0.811 | inactive: -0.152 |
| Cc1ccc(=O)n(-c2cccc(F)c2)c1 [Fluorofenidone] | inactive: 0.436 | inactive: -0.244 | inactive: 2.75 |
| CCCCc1cc2c(=O)cc(C(=O)O)[nH]c2c2c(=O)cc(C(=O)O)[nH]c12 [Bufrolin] | inactive: 0.92 | inactive: -0.163 | inactive: 2.18 |
| CCC(C(N)=O)(C(N)=O)c1ccccc1 | inactive: -0.668 | inactive: 0.579 | inactive: 1.36 |

Three entries drawn at random from those above:

| Structure (SMILES) | TEAD-luciferase reporter activity (compound concentration: 200 nM) | TEAD-luciferase reporter activity (compound concentration: 2 uM) | TEAD-luciferase reporter activity (compound concentration: 10 uM) |
| --- | --- | --- | --- |
| CNC(=O)c1ccc(-c2cc(Cl)cc(Cl)c2Cl)c(N)n1 | inactive: 0.798 | inactive: -0.591 | inactive: 1.21 |
| CCc1ccc(N(CC(C)C)S(=O)(=O)c2ccc(OCC3CCOCC3)c(CO)c2)cc1 | inactive: 2.13 | inactive: 0.297 | inactive: -0.201 |
| Cc1ccc(O)c2ncccc12 | inactive: -1.46 | inactive: -0.849 | inactive: 2.01 |

Next records

| Structure (SMILES) | TEAD-luciferase reporter activity (compound concentration: 200 nM) | TEAD-luciferase reporter activity (compound concentration: 2 uM) | TEAD-luciferase reporter activity (compound concentration: 10 uM) |
| --- | --- | --- | --- |
| Cc1ncc([N+](=O)[O-])n1CCO [Metronidazole] | inactive: -0.823 | inactive: -1.36 | inactive: -1.24 |
| Nc1ccn([C@@H]2O[C@H](CO)C[C@@H]2F)c(=O)n1 | inactive: 0.681 | inactive: -0.748 | inactive: 3.11 |
| CC(C)(C)NC(=O)C1CCC2C3CCC4NC(=O)C=CC4(C)C3CCC12C (stereo not drawn) [finasteride] | inactive: -1.26 | inactive: -1.21 | inactive: -0.626 |
| N#CC1CCN(C(=O)C2CN(c3ccccc3)C(=O)N2)CC1 (stereo not drawn) | inactive: -0.0163 | – | inactive: 0.894 |
| CC(=O)N1Cc2ccccc2OC2(CCN(C(=O)NC(C)C)CC2)C1 | inactive: -1.72 | – | active: 8.03 |
| O=C1CCC(N2C(=O)c3ccccc3S2(=O)=O)C(=O)N1 (stereo not drawn) | inactive: -0.612 | inactive: -1.03 | inactive: 2.79 |
| C=CCc1c(OCCCNCc2ccccc2)ccc2c1[nH]c1ccccc12 | inactive: -0.54 | inactive: -0.22 | inactive: 1.4 |
| C#CCN[C@@H]1CCc2ccccc21 [Rasagiline mesilate] | inactive: -0.923 | inactive: 1.89 | inactive: 0.776 |
| Cc1ccc(Cl)c(OCC(O)CNC(C)C)c1 (stereo not drawn) [analog of bupranolol] | inactive: -0.105 | inactive: -0.588 | inactive: -0.586 |
| NC[C@H]1CC[C@H](C(=O)Oc2ccc(CCC(=O)O)cc2)CC1 [cetraxate] | – | inactive: -0.578 | – |
| NC[C@H]1CC[C@H](C(=O)Oc2ccc(CCC(=O)O)cc2)CC1 | inactive: -0.594 | – | inactive: 0.0829 |
| CC1c2ccccc2Cn2cc3c(c21)C(=O)c1cccc(O)c1C3=O (stereo not drawn) | inactive: 1.85 | inactive: 0.217 | inactive: 0.271 |
| O=C(O)Cc1ccc2c(c1)CC(CNS(=O)(=O)c1ccc(Cl)cc1)C2 (stereo not drawn) | inactive: -1.13 | inactive: -1.5 | inactive: -1.06 |
| O=C(O)c1cc(N=Nc2ccc(S(=O)(=O)Nc3ccccn3)cc2)ccc1O [sulfasalazine] | – | inactive: -1.04 | – |
| O=C(O)c1cc(N=Nc2ccc(S(=O)(=O)Nc3ccccn3)cc2)ccc1O | inactive: -0.901 | – | inactive: 0.602 |
| O=c1[nH]cnc2[nH]ncc12 [Allopurinol] | inactive: -1.16 | inactive: -0.875 | inactive: -0.906 |
| Cc1occc(=O)c1O | inactive: 0.133 | – | inactive: -0.418 |
| Cc1occc(=O)c1O [maltol] | – | inactive: -1.25 | – |
| O=CNc1ncc([N+](=O)[O-])s1 | inactive: 0.541 | inactive: -1.36 | inactive: -1.08 |
| C[C@H](N)C(=O)N[C@@]1(C(=O)O)C[C@@H](Sc2nnc[nH]2)[C@H]2[C@H](C(=O)O)[C@H]21 | inactive: 1.79 | inactive: -1.36 | inactive: -2.09 |
| c1ccc2c(c1)CCCC2C1=NCCN1 (stereo not drawn) [Tetrahydrozoline hydrochloride] | – | inactive: -0.877 | – |
| c1ccc2c(c1)CCCC2C1=NCCN1 (stereo not drawn) [Tyzine] | inactive: -0.54 | – | inactive: 1.69 |
| CC1/C=C/C=C/C=C/C=C/C=C/C=C/C=C/C(OC2OC(C)C(O)C(N)C2O)CC(O)C(C(=O)O)C(O)CC(=O)CC(O)CC(O)CC(O)CC(=O)CCCC(=O)CC(=O)OC1C(C)CC(C)C(O)CC(=O)c1ccc(N)cc1 (stereo not drawn) | inactive: -0.926 | inactive: -0.98 | inactive: -0.713 |
| CC1=C(C(=O)O)N2C(=O)[C@@H](NC(=O)[C@H](N)C3=CCC=CC3)[C@H]2SC1 [Cephradine] | inactive: -0.961 | – | inactive: 3.44 |
| CC1=C(C(=O)O)N2C(=O)[C@@H](NC(=O)[C@H](N)C3=CCC=CC3)[C@H]2SC1 [Cefradine] | – | inactive: -1.66 | – |
